# PubChem BioAssay AID1259308 | NCATS – 2017
# Test: 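Candidate targets for better recombinant protein yield in mammalian cells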 (primary screen)
# Cell system: human HEK293 embryonic kidney cells stably expressing firefly luciferase (HEK-CMV-Luc2-Hygro)
# Knock-down reagent: single siRNA against human genes, 0.8 pmol siRNA per well
# Duration: 72 h
# Read-out: 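Luciferase light (ONE-Glo) measured on one replicate plate set and viability (CellTiter-Glo) on the other, scaled to a negative control siRNA, with robust z-scores and luciferase per cell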
# Direction: total luciferase, z-score and total luciferase, % of control: higher = more reporter protein produced; luciferase per cell, z-score: higher = more reporter output per viable cell; viable cells, % of control: higher = more viable cells
# Hit rule: 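Active when the median/MAD z-score for overall luciferase is greater than 3; a gene was taken forward for validation with new siRNAs if at least two of its three siRNAs passed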
# Calls: active = raised luciferase; inactive = no rise
# The whole screen tested about 59,000 reagents; this is a random part of them. About 1,510 of all reagents (2.6%) were called active. 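Calls use total luciferase alone and ignore viability, so some active siRNAs may act by altering cell number.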 A number with no mark means an inactive call. Reagents against one gene are numbered here.
gene,reagent,"total luciferase, z-score","total luciferase, % of control","luciferase per cell, z-score","viable cells, % of control"
PEX14,1,-0.205,77.8,-0.132,90
PEX14,2,0.917,100,-0.0415,113
PEX14,3,1.28,107,0.905,94.5
PEX13,1,0.273,87.3,1.26,70.1
PEX13,2,4.02 (active),162,2.45,94.9
PEX13,3,-1.03,61.4,-2.16,121
SHISA5,1,1.33,108,0.603,103
SHISA5,2,0.038,82.6,-0.321,100
SHISA5,3,1.86,119,1.9,80.5
MRPL50,1,0.218,86.2,0.0297,95.6
MRPL50,2,-1.36,54.8,0.343,56
MRPL50,3,-0.139,79.1,-0.461,99.8
GNPTG,1,-0.605,69.9,-0.583,91
GNPTG,2,-0.725,67.5,-0.0655,76.7
GNPTG,3,-0.201,77.9,-0.389,96.4
CRHR1,1,-0.0464,81,2.5,46.9
CRHR1,2,-0.682,68.3,-0.392,84.7
CRHR1,3,2.08,123,1.7,88.1
MRPS2,1,-0.0394,81.1,-0.367,99.8
MRPS2,2,0.0211,82.3,0.467,81.3
MRPS2,3,-1.94,43.3,-1.94,80.7
CYREN,1,1.56,113,1.57,83.3
CYREN,2,0.0426,82.7,-0.114,95.3
CYREN,3,-0.886,64.3,-0.82,89.1
EFCAB8,1,1.12,104,0.538,101
EFCAB8,2,0.0563,83,-0.208,98
EFCAB8,3,1.02,102,1.61,74.7
SLCO2A1,1,-0.886,64.3,-0.515,82.2
SLCO2A1,2,-0.0614,80.7,-0.501,103
SLCO2A1,3,0.562,93.1,0.416,93.2
RPS26P35,1,-1.95,43,-0.646,57
RPS26P35,2,-2.72,27.8,-1.74,49.2
RPS26P35,3,-1.85,45.1,-0.171,52.7
PNPLA2,1,-1.08,60.3,-1.29,94.6
PNPLA2,2,1.14,104,0.4,105
PNPLA2,3,0.777,97.3,1.09,81.7
RHOBTB1,1,-1.11,59.8,-1.06,88.3
RHOBTB1,2,-1.07,60.7,0.11,65.9
RHOBTB1,3,-2.51,31.9,-2.7,72.6
ZBTB7B,1,0.787,97.5,1.06,82.4
ZBTB7B,2,-1.24,57.2,-1.31,90.2
ZBTB7B,3,-0.00383,81.8,-0.249,97.6
LMNTD1,1,-0.0413,81.1,0.0287,89.9
LMNTD1,2,0.542,92.7,0.818,83.5
LMNTD1,3,-0.506,71.8,-1.04,106
EBAG9,1,-0.123,79.4,-0.429,99.4
EBAG9,2,-0.323,75.5,-0.162,88
EBAG9,3,4.71 (active),176,3.49,78.2
FBXO3,1,-0.715,67.7,-1.06,99.9
FBXO3,2,0.456,90.9,0.0879,99.3
FBXO3,3,0.0559,83,-0.786,114
GRP,1,0.0257,82.4,-0.55,106
GRP,2,0.817,98.1,-0.0309,111
GRP,3,0.67,95.2,0.133,103
NEUROD2,1,0.79,97.6,0.551,94.3
NEUROD2,2,-2.32,35.8,-2.69,81.3
NEUROD2,3,0.902,99.8,0.487,98.1
MIR3171HG,1,-0.606,69.8,-0.579,90.9
MIR3171HG,2,-0.707,67.8,-0.816,94
MIR3171HG,3,0.74,96.6,0.633,91.4
OR2B2,1,-0.374,74.4,-1.1,111
OR2B2,2,-1.46,52.9,-1.54,88.5
OR2B2,3,-2.16,38.9,-1.88,71.3
PGLYRP3,1,0.993,102,0.516,99.2
PGLYRP3,2,-0.408,73.8,0.678,69
PGLYRP3,3,-1.03,61.4,1.9,41.7
EBNA1BP2,1,-1.25,57.1,-0.699,76.7
EBNA1BP2,2,-1.47,52.6,-1.54,88.1
EBNA1BP2,3,-1.65,49.2,-1.84,89.2
MOSPD1,1,0.284,87.5,0.574,84.1
MOSPD1,2,0.996,102,0.564,98
MOSPD1,3,0.782,97.4,0.314,100
NSA2,1,-2.17,38.7,-2,73.2
NSA2,2,-0.0945,80,-0.115,92.1
NSA2,3,1.55,113,1.11,93.9
